Experimental data reported in PubChem BioAssay (NCI).
The hits were mostly taken out for another list; the other results follow. Active and inactive are the calls of the source. No stated cut-off is given here; in the data, active means growth inhibition above about 70%; inactive means the rest.

Test: NCI Yeast Anticancer Drug Screen. Data for the wt2 strain (AID 169);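 further: 0% = growth of vehicle-treated yeast cultures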
Settings: S. cerevisiae wt2 strain growth inhibition, stronger effect = higher value
Description: Growth inhibition of yeast strains with defined genetic alterations is measured as a screen for potential anti-cancer activity. Selected strains with alterations in DNA damage repair or cell cycle control were exposed to compounds and growth inhibition was measured relative to vehicle treated controls. The strain used in this assay is wt2

Measured: growth inhibition

O=C(CCN1CC1)Nc1ccccc1
inactive: at 1.2 µM 2% | at 3.7 µM 3% | at 11.0 µM 3% | at 33.0 µM 1% | at 100.0 µM 48%

O=C(O)C(O)C(O)C1[O][Sb][O]C1CO (stereo not given)
inactive: at 1.2 µM 2% | at 3.7 µM 2% | at 11.0 µM 3% | at 33.0 µM 3% | at 100.0 µM 4%

CCCCN(CCCC)CC(=O)c1ccc(I)cc1
inactive: at 1.2 µM 0% | at 3.7 µM 2% | at 11.0 µM 7% | at 33.0 µM 9% | at 100.0 µM 23%

Cc1cc[c]([Sb]2[O]C(CO)C(C(O)C(O)C(=O)O)[O]2)cc1 (stereo not given)
inactive: at 1.2 µM 0% | at 3.7 µM 2% | at 11.0 µM 2% | at 33.0 µM 3% | at 100.0 µM 5%

O=C(NCP(=O)(Oc1ccccc1)Oc1ccccc1)OCc1ccccc1
inactive: at 1.2 µM -2% | at 3.7 µM -2% | at 11.0 µM -1% | at 33.0 µM -2% | at 100.0 µM -16%

CCOC(=O)CNP(=S)(OCC)OCC
inactive: at 1.2 µM -2% | at 3.7 µM -1% | at 11.0 µM 0% | at 33.0 µM -1% | at 100.0 µM 1%

O=P1(NNc2ncccn2)SC(NN=C2CCCCC2)=NC12CCCCC2 (stereo not given)
inactive: at 1.2 µM -2% | at 3.7 µM -3% | at 11.0 µM -2% | at 33.0 µM -4% | at 100.0 µM 3%

COc1cc2c3cc1Oc1c(O)c(OC)cc4c1[C@H](Cc1ccc(cc1)Oc1cc(ccc1O)C[C@H]3N(C)CC2)N(C)CC4
inactive: at 1.2 µM -2% | at 3.7 µM -5% | at 11.0 µM -4% | at 33.0 µM -5% | at 100.0 µM -6%
